Reference: paper PMC12167495
Results are given in words; binding and its absence hold for the method and conditions named. In cells and extracts the contact can be indirect. Some entries that bind do so weakly or less than the wild type.

The chains behind the UniProt entries cited, without tags or fusion partners. Residues count along the entry.
UniProt Q91ZX7, residues 20-4545: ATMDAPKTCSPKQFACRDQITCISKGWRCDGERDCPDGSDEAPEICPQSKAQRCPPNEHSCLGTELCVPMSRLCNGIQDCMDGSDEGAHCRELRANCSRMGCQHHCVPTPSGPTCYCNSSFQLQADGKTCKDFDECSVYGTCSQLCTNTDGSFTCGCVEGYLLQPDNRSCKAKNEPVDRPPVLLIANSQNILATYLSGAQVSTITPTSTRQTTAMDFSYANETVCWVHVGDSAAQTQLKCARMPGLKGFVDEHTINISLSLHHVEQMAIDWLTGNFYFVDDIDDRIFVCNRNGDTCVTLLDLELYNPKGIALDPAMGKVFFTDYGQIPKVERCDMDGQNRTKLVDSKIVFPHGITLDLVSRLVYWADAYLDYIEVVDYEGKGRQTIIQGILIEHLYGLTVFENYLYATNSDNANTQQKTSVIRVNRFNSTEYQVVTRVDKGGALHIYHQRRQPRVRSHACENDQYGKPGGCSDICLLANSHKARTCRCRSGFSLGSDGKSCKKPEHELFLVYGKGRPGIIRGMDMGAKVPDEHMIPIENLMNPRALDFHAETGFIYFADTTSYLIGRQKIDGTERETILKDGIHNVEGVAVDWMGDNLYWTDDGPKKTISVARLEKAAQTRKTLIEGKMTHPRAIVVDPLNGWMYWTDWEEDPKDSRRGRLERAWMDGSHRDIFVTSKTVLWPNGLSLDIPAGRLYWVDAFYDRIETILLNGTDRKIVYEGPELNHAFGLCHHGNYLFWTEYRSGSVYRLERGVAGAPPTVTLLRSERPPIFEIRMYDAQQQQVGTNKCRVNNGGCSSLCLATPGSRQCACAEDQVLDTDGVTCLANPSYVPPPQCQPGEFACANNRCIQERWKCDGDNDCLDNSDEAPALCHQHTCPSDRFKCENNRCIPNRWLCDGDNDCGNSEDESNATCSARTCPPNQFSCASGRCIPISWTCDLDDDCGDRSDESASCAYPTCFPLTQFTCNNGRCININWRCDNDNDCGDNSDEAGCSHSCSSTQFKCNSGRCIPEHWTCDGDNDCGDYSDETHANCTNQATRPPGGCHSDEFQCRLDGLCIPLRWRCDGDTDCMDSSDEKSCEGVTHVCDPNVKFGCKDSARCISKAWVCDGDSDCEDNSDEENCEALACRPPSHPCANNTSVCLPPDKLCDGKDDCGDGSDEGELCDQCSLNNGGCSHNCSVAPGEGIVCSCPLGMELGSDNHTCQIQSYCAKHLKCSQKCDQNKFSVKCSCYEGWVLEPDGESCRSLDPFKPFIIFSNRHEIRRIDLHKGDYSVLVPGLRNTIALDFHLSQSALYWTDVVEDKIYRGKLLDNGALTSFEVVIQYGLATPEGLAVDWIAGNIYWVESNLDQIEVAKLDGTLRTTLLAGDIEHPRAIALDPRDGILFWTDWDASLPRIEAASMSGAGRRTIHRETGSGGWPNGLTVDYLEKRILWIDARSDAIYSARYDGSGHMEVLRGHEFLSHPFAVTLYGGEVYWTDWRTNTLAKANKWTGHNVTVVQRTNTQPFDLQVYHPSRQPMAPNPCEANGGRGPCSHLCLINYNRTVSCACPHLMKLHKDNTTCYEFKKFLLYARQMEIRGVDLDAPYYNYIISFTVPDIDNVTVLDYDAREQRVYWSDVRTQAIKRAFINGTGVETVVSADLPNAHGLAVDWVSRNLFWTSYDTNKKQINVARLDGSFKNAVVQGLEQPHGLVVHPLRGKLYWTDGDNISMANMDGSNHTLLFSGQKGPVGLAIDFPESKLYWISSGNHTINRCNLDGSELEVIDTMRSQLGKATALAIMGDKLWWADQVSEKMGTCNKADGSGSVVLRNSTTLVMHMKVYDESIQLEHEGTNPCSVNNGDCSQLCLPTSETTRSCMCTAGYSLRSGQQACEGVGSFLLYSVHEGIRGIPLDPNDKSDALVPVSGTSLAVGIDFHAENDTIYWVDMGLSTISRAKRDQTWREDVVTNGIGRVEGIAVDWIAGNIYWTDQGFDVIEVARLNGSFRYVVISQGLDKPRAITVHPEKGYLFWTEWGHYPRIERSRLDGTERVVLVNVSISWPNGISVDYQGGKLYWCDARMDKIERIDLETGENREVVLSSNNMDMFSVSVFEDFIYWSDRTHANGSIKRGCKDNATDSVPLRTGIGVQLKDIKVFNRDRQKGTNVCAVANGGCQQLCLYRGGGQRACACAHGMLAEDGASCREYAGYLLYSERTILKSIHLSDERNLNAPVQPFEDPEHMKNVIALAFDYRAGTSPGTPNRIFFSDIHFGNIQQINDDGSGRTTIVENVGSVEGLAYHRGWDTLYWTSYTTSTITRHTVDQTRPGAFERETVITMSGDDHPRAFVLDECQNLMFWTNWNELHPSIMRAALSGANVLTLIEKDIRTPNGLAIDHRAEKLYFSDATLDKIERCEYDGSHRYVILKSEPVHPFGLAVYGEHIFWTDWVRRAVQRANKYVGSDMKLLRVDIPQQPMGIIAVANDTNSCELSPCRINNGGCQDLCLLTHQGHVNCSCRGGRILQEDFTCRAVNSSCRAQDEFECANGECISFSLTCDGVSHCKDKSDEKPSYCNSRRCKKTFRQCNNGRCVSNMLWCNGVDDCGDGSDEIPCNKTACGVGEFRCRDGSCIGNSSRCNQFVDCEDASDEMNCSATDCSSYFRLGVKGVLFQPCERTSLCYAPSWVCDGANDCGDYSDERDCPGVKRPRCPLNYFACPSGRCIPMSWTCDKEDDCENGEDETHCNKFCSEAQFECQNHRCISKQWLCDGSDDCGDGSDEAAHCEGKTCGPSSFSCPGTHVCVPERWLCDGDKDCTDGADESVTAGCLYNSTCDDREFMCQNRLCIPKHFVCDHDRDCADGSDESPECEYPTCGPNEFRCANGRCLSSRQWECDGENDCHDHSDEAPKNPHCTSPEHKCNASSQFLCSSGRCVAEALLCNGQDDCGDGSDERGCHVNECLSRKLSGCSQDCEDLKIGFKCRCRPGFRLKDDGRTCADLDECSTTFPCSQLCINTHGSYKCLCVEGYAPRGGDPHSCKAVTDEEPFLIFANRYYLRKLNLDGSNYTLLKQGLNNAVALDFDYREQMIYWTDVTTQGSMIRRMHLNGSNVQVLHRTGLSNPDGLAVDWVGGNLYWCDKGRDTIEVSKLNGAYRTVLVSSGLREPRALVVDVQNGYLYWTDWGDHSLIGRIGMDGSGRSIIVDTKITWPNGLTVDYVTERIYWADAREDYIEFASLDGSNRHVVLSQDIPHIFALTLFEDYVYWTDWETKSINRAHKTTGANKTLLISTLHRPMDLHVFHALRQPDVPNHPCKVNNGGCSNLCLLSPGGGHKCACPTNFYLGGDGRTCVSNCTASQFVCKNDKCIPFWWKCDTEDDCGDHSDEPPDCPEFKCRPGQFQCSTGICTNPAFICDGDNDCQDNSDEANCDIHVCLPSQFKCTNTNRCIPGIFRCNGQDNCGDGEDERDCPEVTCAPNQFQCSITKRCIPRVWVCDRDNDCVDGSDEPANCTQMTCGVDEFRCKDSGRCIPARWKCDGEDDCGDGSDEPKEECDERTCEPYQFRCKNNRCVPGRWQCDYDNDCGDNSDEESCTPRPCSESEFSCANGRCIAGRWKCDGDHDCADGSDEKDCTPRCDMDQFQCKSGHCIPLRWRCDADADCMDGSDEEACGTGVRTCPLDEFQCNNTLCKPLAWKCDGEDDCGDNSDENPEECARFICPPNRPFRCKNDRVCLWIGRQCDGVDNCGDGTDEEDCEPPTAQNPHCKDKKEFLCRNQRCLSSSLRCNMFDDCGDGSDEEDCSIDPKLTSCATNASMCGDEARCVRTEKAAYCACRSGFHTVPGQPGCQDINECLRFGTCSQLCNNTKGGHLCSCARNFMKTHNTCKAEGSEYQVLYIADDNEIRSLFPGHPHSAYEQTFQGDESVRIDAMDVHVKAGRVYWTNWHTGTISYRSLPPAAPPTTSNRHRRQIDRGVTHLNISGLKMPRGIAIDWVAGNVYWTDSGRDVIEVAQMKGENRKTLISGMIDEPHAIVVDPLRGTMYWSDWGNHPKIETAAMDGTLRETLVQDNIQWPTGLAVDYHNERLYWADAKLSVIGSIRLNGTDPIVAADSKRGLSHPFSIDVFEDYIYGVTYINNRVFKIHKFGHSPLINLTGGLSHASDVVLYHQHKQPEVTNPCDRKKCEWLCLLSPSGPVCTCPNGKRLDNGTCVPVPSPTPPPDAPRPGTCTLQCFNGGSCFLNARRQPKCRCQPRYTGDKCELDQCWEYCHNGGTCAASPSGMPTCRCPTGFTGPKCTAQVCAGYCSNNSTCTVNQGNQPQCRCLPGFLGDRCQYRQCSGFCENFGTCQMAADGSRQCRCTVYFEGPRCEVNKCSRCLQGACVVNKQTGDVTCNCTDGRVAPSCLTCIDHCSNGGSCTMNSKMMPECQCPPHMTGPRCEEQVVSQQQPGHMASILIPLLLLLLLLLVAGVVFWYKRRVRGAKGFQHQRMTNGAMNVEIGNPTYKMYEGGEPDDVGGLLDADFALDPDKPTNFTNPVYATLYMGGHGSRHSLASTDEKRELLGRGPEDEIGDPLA

T1: plasminogen-activating inhibitor-1 (mouse (endogenous in C57BL/6 liver and primary mouse hepatocytes)) (UniProt P22777)
T1 sequence: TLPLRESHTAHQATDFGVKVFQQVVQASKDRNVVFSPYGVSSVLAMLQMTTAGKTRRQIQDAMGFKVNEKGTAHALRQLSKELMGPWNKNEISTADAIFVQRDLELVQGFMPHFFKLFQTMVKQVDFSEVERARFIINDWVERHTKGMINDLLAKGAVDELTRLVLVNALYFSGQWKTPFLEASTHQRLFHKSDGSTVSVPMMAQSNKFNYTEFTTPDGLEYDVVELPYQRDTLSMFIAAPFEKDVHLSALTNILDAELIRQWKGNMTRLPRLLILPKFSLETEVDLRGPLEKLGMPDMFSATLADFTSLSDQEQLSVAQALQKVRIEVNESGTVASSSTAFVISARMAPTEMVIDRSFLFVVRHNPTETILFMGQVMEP

B1: urokinase plasminogen activator receptor (receptor, UniProt P35456 24-298)
chain: LQCMQCESNQSCLVEECALGQDLCRTTVLREWQDDRELEVVTRGCAHSEKTNRTMSYRMGSMIISLTETVCATNLCNRPRPGARGRAFPQGRYLECASCTSLDQSCERGREQSLQCRYPTEHCIEVVTLQSTERSLKDEDYTRGCGSLPGCPGTAGFHSNQTFHFLKCCNYTHCNGGPVLDLQSFPPNGFQCYSCEGNNTLGCSSEEASLINCRGPMNQCLVATGLDVLGNRSYTVRGCATASWCQGSHVADSFPTHLNVSVSCCHGSGCNSPTG
B2: vitronectin (protein, UniProt P29788 20-478)
chain: DQESCKGRCTQGFMASKKCQCDELCTYYQSCCADYMEQCKPQVTRGDVFTMPEDDYWSYDYVEEPKNNTNTGVQPENTSPPGDLNPRTDGTLKPTAFLDPEEQPSTPAPKVEQQEEILRPDTTDQGTPEFPEEELCSGKPFDAFTDLKNGSLFAFRGQYCYELDETAVRPGYPKLIQDVWGIEGPIDAAFTRINCQGKTYLFKGSQYWRFEDGVLDPGYPRNISEGFSGIPDNVDAAFALPAHRYSGRERVYFFKGKQYWEYEFQQQPSQEECEGSSLSAVFEHFALLQRDSWENIFELLFWGRSSDGAREPQFISRNWHGVPGKVDAAMAGRIYVTGSLSHSAQAKKQKSKRRSRKRYRSRRGRGHRRSQSSNSRRSSRSIWFSLFSSEESGLGTYNNYDYDMDWLVPATCEPIQSVYFFSGDKYYRVNLRTRRVDSVNPPYPRSIAQYWLGCPTSEK

Columns and labels:
[1] = target: T1, plasminogen-activating inhibitor-1 (mouse (endogenous in C57BL/6 liver and primary mouse hepatocytes)); assay: co-IP; PAI-1 immunoprecipitated with an anti-PAI-1 antibody from total liver lysates of control, FOLFOX-treated and FOLFOX + SAMe-treated mice; Western blot for uPAR, LRP-1 and vitronectin
[2] = target: T1, plasminogen-activating inhibitor-1 (mouse (endogenous in C57BL/6 liver and primary mouse hepatocytes)); assay: co-IP; PAI-1 immunoprecipitated with an anti-PAI-1 antibody from lysates of primary mouse hepatocytes treated with 2 mM SAMe, 10 ng/mL IL-1β, alone or together, for 24 hours; Western blot for uPAR, LRP-1 and vitronectin
[3] = target: T1, plasminogen-activating inhibitor-1 (mouse (endogenous in C57BL/6 liver and primary mouse hepatocytes)); assay: co-IP; PAI-1 immunoprecipitated with an anti-PAI-1 antibody from total liver lysates of control, FOLFOX-treated and FOLFOX + SAMe-treated mice; Western blot for uPAR, LRP-1 and vitronectin; remark: listed apart in the source

Molecule	binding [1]	binding [2]	binding [3]
low-density lipoprotein receptor-related protein-1 (from UniProt Q91ZX7 20-4545)	binds	binds	
B1		binds	binds
B2		binds	binds
